Where two headings read alike, the source gives them in different places. Some entries share one result that the patent states for a list of compounds.
Columns and labels:
Assay type in all cases: in vivo
[1] = system: cucumber powdery mildew fungus (Sphaerotheca fuliginea); experiment: Cucumber powdery mildew control test, foliar spray before inoculation; details: 500 ppm sprayed on cucumber (SAGAMI HANJIRO); investigated 8 days after inoculation
[2] = system: rice blast fungus (Magnaporthe grisea); details: 6 days in contact with infected seedlings
[3] = system: kidney bean stem rot fungus (Sclerotinia sclerotiorum); experiment: Kidney bean stem rot control test, foliar spray before inoculation; details: 500 ppm sprayed on kidney bean (NAGAUZURA SAITOU); investigated 4 days after inoculation
[4] = system: barley scald fungus (Rhynchosporium secalis); experiment: Barley scald control test, foliar spray before inoculation; details: 200 ppm sprayed on barley (MIKAMO GOLDEN); inoculated 2 days after spraying
[5] = system: anthracnose fungus (Colletotrichum lagenarium); details: 200 ppm sprayed on cucumber (SAGAMI HANJIRO); inoculated one day after spraying; 6 days
[6] = 500 ppm water dilution sprayed on rice (NIHONBARE)
[7] = 200 ppm water dilution sprayed on rice (NIHONBARE)

SMILES | area of lesion on treated plant relative to that on an untreated plant [1] [%] | lesion area on treated plant with respect to the lesion area on the non-treated plant [2, 6] [%] | lesion area on treated plant with respect to the lesion area on the non-treated plant [2, 7] [%] | area of lesion on treated plant relative to that on an untreated plant [4] [%] | also measured
COc1ccccc1-n1ccc(OCc2c(-n3nnn(C)c3=O)cnn2C(C)(C)C)n1 [present compound 12, 1-(1-tert-butyl-5-{[1-(2-methoxyphenyl)-1H-pyrazol-3-yl]oxymethyl}-1H-pyrazol-4-yl)-4-methyl-1,4-dihydrotetrazol-5-one] | ≤ 30 | – | – | – | –
COc1ccccc1-n1ccc(OCc2c(-n3nnn(C)c3=O)cnn2C)n1 [present compound 13, 1-(1-methyl-5-{[1-(2-methoxyphenyl)-1H-pyrazol-3-yl]oxymethyl}-1H-pyrazol-4-yl)-4-methyl-1,4-dihydrotetrazol-5-one] | – | ≤ 30 | – | – | –
Cn1cc(-n2nnn(C)c2=O)c(COc2ccn(-c3ccc(Cl)cc3)n2)n1 [present compound 10, 1-(1-methyl-3-{[1-(4-chlorophenyl)-1H-pyrazol-3-yl]oxymethyl}-1H-pyrazol-4-yl)-4-methyl-1,4-dihydrotetrazol-5-one] | – | – | ≤ 30 | – | –
Cn1nnn(-c2cccnc2COc2ccn(-c3ccc(Cl)cc3)n2)c1=O [present compound 6, 1-(2-{[1-(4-chlorophenyl)-1H-pyrazol-3-yl]oxymethyl}-pyridin-3-yl)-4-methyl-1,4-dihydrotetrazol-5-one] | – | – | – | – | area of lesion on treated plant relative to that on an untreated plant [3]: ≤ 30%
Cn1nnn(-c2cnn(C(C)(C)C)c2COc2ccn(-c3ccc(Cl)cc3)n2)c1=O [present compound 1, 1-(1-tert-butyl-5-{[1-(4-chlorophenyl)-1H-pyrazol-3-yl]oxymethyl}-1H-pyrazol-4-yl)-4-methyl-1,4-dihydrotetrazol-5-one] | – | – | ≤ 30 | – | –
Cc1cc(-c2nn(C)c(Cl)c2C)ccc1OCc1ncccc1-n1nnn(C)c1=O [present compound 16, 1-(2-[2-methyl-4-(5-chloro-1,4-dimethyl-1H-pyrazol-3-yl)-phenoxymethyl]-pyridin-3-yl)-4-methyl-1,4-dihydrotetrazol-5-one] | ≤ 30 | ≤ 30 | – | ≤ 30 | area of lesion on treated plant relative to that on an untreated plant [5]: ≤ 30%
Cc1cc(-c2nn(C)c(Cl)c2C)ccc1OCc1c(-n2nnn(C)c2=O)cnn1C(C)(C)C [present compound 14, 1-(1-tert-butyl-5-[2-methyl-4-(5-chloro-1,4-dimethyl-1H-pyrazol-3-yl)-phenoxymethyl]-1H-pyrazol-4-yl)-4-methyl-1,4-dihydrotetrazol-5-one] | ≤ 30 | – | – | ≤ 30 | –
Cn1ncc(-n2nnn(C)c2=O)c1COc1ccn(-c2ccc(Cl)cc2)n1 [present compound 11, 1-(1-methyl-5-{[1-(4-chlorophenyl)-1H-pyrazol-3-yl]oxymethyl}-1H-pyrazol-4-yl)-4-methyl-1,4-dihydrotetrazol-5-one] | – | ≤ 30 | – | – | –
Cc1cc(-c2nn(C)c(Cl)c2C)ccc1OCc1c(-n2nnn(C)c2=O)cnn1C [present compound 15, 1-(1-methyl-5-[2-methyl-4-(5-chloro-1,4-dimethyl-1H-pyrazol-3-yl)-phenoxymethyl]-1H-pyrazol-4-yl)-4-methyl-1,4-dihydrotetrazol-5-one] | – | – | ≤ 30 | ≤ 30 | area of lesion on treated plant relative to that on an untreated plant [5]: ≤ 30%

— patent US20160272622A1, “TETRAZOLINONE COMPOUND AND USE THEREOF” (SUMITOMO CHEMICAL COMPANY, LIMITED, priority 2013, published 2016)
